Source: patent US10443043B2, “Methods for making induced pluripotent stem cells” (NEW YORK UNIVERSITY, priority 2015, dated 2019)
Some of these results come from one statement about several compounds together.

System: hepatoblasts
Assay: Reprogramming of hepatoblasts, dox-independent colonies
Type: cell-based, mouse
Conditions: six days, compound alone
Procedure: MEFs (Stadtfeld et al., 2008) and hepatoblasts (Gailhouste, 2012) were isolated from E14.5 embryos and GMPs, CMPs, MEP and LSK cells from either fetal liver or adult bone marrow (Akashi et al., 2000). All cell types used for reprogramming experiments were heterozygous for the inducible OKSM cassette, Rosa26-rtTA and the Oct4-GFP reporter. MEFs were expanded in reduced-oxygen conditions (4%) and used at passages 1 or 2. For reprogramming, cells were seeded in ESC media (DMEM with 15% FBS, L-glutamin, penicillin-streptomycin, nonessential amino acids, β-mercaptoethanol and 1000 U/ml LIF) at the desired density on a layer of irradiated feeder cells in presence of 1 mg/ml doxycycline. If applicable, L-Ascorbic acid (50 ng/μl), CHIR99021 (3 μM), TGFβ RI Kinase Inhibitor II (250 nM) and PD032590 (0.75 μM) were added. […] To score factor-independent colonies, dox (and other compounds) were removed by washing cultures twice with PBS and then maintaining them in ESC media for at least three days before colonies were counted by fluorescence microscopy or after alkaline phosphatase staining (Vector Laboratories). For quantification of Oct4-GFP expression, cultures were harvested by trypsin digestion, stained with DAPI or 7-AAD to exclude dead cells, acquired on a LSRII cytometer (BD Biosciences) and analyzed with FlowJo software (Tree Star Inc.). […]

For `O=C1O[C@H]([C@@H](O)CO)C(O)=C1O` [AA, ascorbic acid], the “dox-independent colonies relative to numbers seen with 3c” value was 60-80%.
